Assay results as given in the supplement of paper PMC8728848.
This is one part of the list.

Legend:
Test in all cases: glycan array binding signal (z-score within array); higher = stronger binding
Settings in all cases: glycan notation: IUPAC condensed, linker removed
Gal(a1-3)Gal(b1-3)GlcNAc = target: Gal(a1-3)Gal(b1-3)GlcNAc
Outline: (§1)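 The binding signal is a Z-score computed within each array and averaged over linkers. Arrays of the same protein sequence at different concentrations or buffers were also averaged together. Data originate from 3228 arrays in the Consortium for Functional Glycomics database, kept only where the protein sequence was available.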

[1] = target: Gal(a1-3)Gal(b1-3)GlcNAc(b1-2)Man
Outline: as §1

[2] = target: Gal(a1-3)Gal(b1-3)GlcNAc(b1-2)Man(a1-3)[Gal(a1-3)Gal(b1-3)GlcNAc(b1-2)Man(a1-6)]Man(b1-4)GlcNAc(b1-4)GlcNAc
Outline: as §1

[3] = target: Gal(a1-3)Gal(b1-3)GlcNAc(b1-3)GalNAc
Outline: as §1

[4] = target: Gal(a1-3)Gal(b1-3)GlcNAc(b1-6)GalNAc
Outline: as §1

[5] = target: Gal(a1-3)Gal(b1-3)[Fuc(a1-4)]GlcNAc(b1-2)Man(a1-3)[Gal(a1-3)Gal(b1-3)[Fuc(a1-4)]GlcNAc(b1-2)Man(a1-6)]Man(b1-4)GlcNAc(b1-4)GlcNAc
Outline: as §1

Gal(a1-3)Gal(b1-4)Glc = target: Gal(a1-3)Gal(b1-4)Glc
Outline: as §1

Gal(a1-3)Gal(b1-4)GlcNAc = target: Gal(a1-3)Gal(b1-4)GlcNAc
Outline: as §1

[6] = target: Gal(a1-3)Gal(b1-4)GlcNAc(b1-2)Man
Outline: as §1

[7] = target: Gal(a1-3)Gal(b1-4)GlcNAc(b1-2)Man(a1-3)[Gal(a1-3)Gal(b1-4)GlcNAc(b1-2)Man(a1-6)]Man(b1-4)GlcNAc(b1-4)GlcNAc
Outline: as §1

[8] = target: Gal(a1-3)Gal(b1-4)GlcNAc(b1-3)GalNAc
Outline: as §1

[9] = target: Gal(a1-3)Gal(b1-4)GlcNAc(b1-6)GalNAc
Outline: as §1

[10] = target: Gal(a1-3)Gal(b1-4)[Fuc(a1-3)]GlcNAc
Outline: as §1

[11] = target: Gal(a1-3)Gal(b1-4)[Fuc(a1-3)]GlcNAc(b1-2)Man(a1-3)[Gal(a1-3)Gal(b1-4)[Fuc(a1-3)]GlcNAc(b1-2)Man(a1-6)]Man(b1-4)GlcNAc(b1-4)GlcNAc
Outline: as §1

Gal(a1-3)GalNAc = target: Gal(a1-3)GalNAc
Outline: as §1

[12] = target: Gal(a1-3)[Gal(a1-4)]Gal(b1-4)GlcNAc
Outline: as §1

[13] = target: Gal(a1-4)Gal(b1-3)GlcNAc(b1-2)Man(a1-3)[Gal(a1-4)Gal(b1-3)GlcNAc(b1-2)Man(a1-6)]Man(b1-4)GlcNAc(b1-4)GlcNAc
Outline: as §1

Gal(a1-4)Gal(b1-4)Glc = target: Gal(a1-4)Gal(b1-4)Glc
Outline: as §1

Gal(a1-4)Gal(b1-4)GlcNAc = target: Gal(a1-4)Gal(b1-4)GlcNAc
Outline: as §1

[14] = target: Gal(a1-4)Gal(b1-4)GlcNAc(b1-2)Man(a1-3)[Gal(a1-4)Gal(b1-4)GlcNAc(b1-2)Man(a1-6)]Man(b1-4)GlcNAc(b1-4)GlcNAc
Outline: as §1

[15] = target: Gal(a1-4)Gal(b1-4)GlcNAc(b1-3)Gal(b1-4)Glc
Outline: as §1

Gal(a1-4)GlcNAc = target: Gal(a1-4)GlcNAc
Outline: as §1

Gal(a1-6)Glc = target: Gal(a1-6)Glc
Outline: as §1

Gal(b1-2)Gal = target: Gal(b1-2)Gal
Outline: as §1

Gal(b1-3)Gal = target: Gal(b1-3)Gal
Outline: as §1

Gal(b1-3)Gal(b1-4)GlcNAc = target: Gal(b1-3)Gal(b1-4)GlcNAc
Outline: as §1

Gal(b1-3)GalNAc = target: Gal(b1-3)GalNAc
Outline: as §1

[16] = target: Gal(b1-3)GalNAc(a1-3)[Fuc(a1-2)]Gal(b1-4)Glc
Outline: as §1

[17] = target: Gal(b1-3)GalNAc(a1-3)[Fuc(a1-2)]Gal(b1-4)GlcNAc
Outline: as §1

Gal(b1-3)GalNAc(b1-3)Gal = target: Gal(b1-3)GalNAc(b1-3)Gal
Outline: as §1

[18] = target: Gal(b1-3)GalNAc(b1-3)Gal(a1-4)Gal(b1-4)Glc
Outline: as §1

[19] = target: Gal(b1-3)GalNAc(b1-4)Gal(b1-4)Glc
Outline: as §1

[20] = target: Gal(b1-3)GalNAc(b1-4)[Neu5Ac(a2-3)]Gal(b1-4)Glc
Outline: as §1

Gal(b1-3)GlcNAc = target: Gal(b1-3)GlcNAc
Outline: as §1

[21] = target: Gal(b1-3)GlcNAc(a1-3)Gal(b1-4)GlcNAc
Outline: as §1

[22] = target: Gal(b1-3)GlcNAc(a1-6)Gal(b1-4)GlcNAc
Outline: as §1

Gal(b1-3)GlcNAc(b1-2)Man = target: Gal(b1-3)GlcNAc(b1-2)Man
Outline: as §1

[23] = target: Gal(b1-3)GlcNAc(b1-2)Man(a1-3)[Gal(b1-3)GlcNAc(b1-2)Man(a1-6)]Man(b1-4)GlcNAc(b1-4)GlcNAc
Outline: as §1

B1: SAOUHSC 02783 (Staphylococcus aureus), Q5HD69 (protein)
chain: MIHSKKLTLGICLVLLIILIVGYVIMTKTNGRNAQIKDTFNQTLKLYPTKNLDDFYDKEGFRDQEFKKGDKGTWIVNSEMVIEPKGKDMETRGMVLYINRNTRTTKGYYFISEMTDDSNGRPKDDEKRYPVKMEHNKIIPTKPLPNDKLKKEIENFKFFVQYGNFKDINDYKDGDISYNPNVPSYSAKYQLNNDDYNVQQLRKRYDIPTKQAPKLLLKGDGDLKGSSVGSRSLEFTFVENKEENIYFTDSVQYTPSEDTRYESN
glycan array binding signal (z-score) (Gal(a1-3)Gal(b1-3)GlcNAc): -0.745
glycan array binding signal (z-score) [1]: -1.17
glycan array binding signal (z-score) [2]: 1.74
glycan array binding signal (z-score) [3]: -0.979
glycan array binding signal (z-score) [4]: -0.732
glycan array binding signal (z-score) [5]: 1.79
glycan array binding signal (z-score) (Gal(a1-3)Gal(b1-4)Glc): -0.012
glycan array binding signal (z-score) (Gal(a1-3)Gal(b1-4)GlcNAc): 1.21
glycan array binding signal (z-score) [6]: -0.596
glycan array binding signal (z-score) [7]: -0.416
glycan array binding signal (z-score) [8]: 0.099
glycan array binding signal (z-score) [9]: 0.313
glycan array binding signal (z-score) [10]: 0.861
glycan array binding signal (z-score) [11]: -0.315
glycan array binding signal (z-score) (Gal(a1-3)GalNAc): -0.777
glycan array binding signal (z-score) [12]: 0.258
glycan array binding signal (z-score) [13]: 0.113
glycan array binding signal (z-score) (Gal(a1-4)Gal(b1-4)Glc): 0.717
glycan array binding signal (z-score) (Gal(a1-4)Gal(b1-4)GlcNAc): -0.183
glycan array binding signal (z-score) [14]: 1.84
glycan array binding signal (z-score) [15]: -1.38
glycan array binding signal (z-score) (Gal(a1-4)GlcNAc): -0.528
glycan array binding signal (z-score) (Gal(a1-6)Glc): -0.842
glycan array binding signal (z-score) (Gal(b1-2)Gal): -0.647
glycan array binding signal (z-score) (Gal(b1-3)Gal): 0.581
glycan array binding signal (z-score) (Gal(b1-3)Gal(b1-4)GlcNAc): -0.045
glycan array binding signal (z-score) (Gal(b1-3)GalNAc): -0.367
glycan array binding signal (z-score) [16]: 0.687
glycan array binding signal (z-score) [17]: -1.73
glycan array binding signal (z-score) (Gal(b1-3)GalNAc(b1-3)Gal): -0.932
glycan array binding signal (z-score) [18]: 0.397
glycan array binding signal (z-score) [19]: -0.054
glycan array binding signal (z-score) [20]: -0.478
glycan array binding signal (z-score) (Gal(b1-3)GlcNAc): 0.236
glycan array binding signal (z-score) [21]: 0.557
glycan array binding signal (z-score) [22]: -0.724
glycan array binding signal (z-score) (Gal(b1-3)GlcNAc(b1-2)Man): -0.642
glycan array binding signal (z-score) [23]: -0.607
